According to PubChem BioAssay AID493014 (National Center for Advancing Translational Sciences (NCATS), 2011):
Some of the results follow. These are further read-outs of the screen, such as a control signal, another cell line or another target. No call is given for them. The list favours compounds with an active or inconclusive main result. Words in brackets tell the shape of the fitted curve; partial curves, single points and poor fits give uncertain potencies.

Experiment: qHTS Assay to Find Inhibitors of Chronic Active B-Cell Receptor Signaling
Conditions: ABC-DLBCL IkBa-CBG/CBR reporter, luminescence ratio (green luciferase fused to IkBa over red control in TMD8 lymphoma cells), 4 h
Summary of the method: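 TMD8 ABC-DLBCL cells carrying doxycycline-inducible green luciferase fused to IkappaBalpha plus unfused red luciferase were exposed to compounds (up to 46 uM) for 4 hrs at 37C. Activity came from the overlap-corrected green/red luminescence ratio.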

[1] = measured here: CBR red luminescence, cell number
[2] = measured here: IkBa-CBG green luminescence

| SMILES | AC50 [1] | AC50 [2] |
| --- | --- | --- |
| O=C(NCc1nnnn1-c1ccc(F)c(F)c1)C(=O)c1c[nH]c2ccccc12 | 13 µM [falling, partial curve, poor fit] |  |
| O=C(CN1CCN(c2ccccc2)CC1)NC(=O)NCc1ccccc1 | 6.51 µM [falling, single point] | 7.31 µM [rising, partial curve, poor fit] |
| Cc1cc(C)n2cc(CSCc3ccco3)nc2n1 | 7.31 µM [rising, partial curve, poor fit] |  |
| COc1ccc(C(=O)COC(=O)Cn2[nH]c(=O)c3ccccc3c2=O)c(OC)c1 | 1.64 µM [rising, full curve, poor fit] |  |
| C#CCOCCOCCOCCNc1nc(N2CCN(C(=O)[C@H]([C@@H](C)CC)n3cc([C@@H](N)CO)nn3)CC2)nc(N2CCN(C(=O)[C@H](CCCCN)n3cc([C@@H](N)CC(C)C)nn3)CC2)n1 | 1.78 µM [rising, full curve, poor fit] |  |
| O=S(=O)(CCc1nc2ccccc2[nH]1)c1ccc(Cl)cc1 | 3.66 µM [rising, full curve] |  |
| CN(C)CCCNC(=O)c1cc2sc3ccccc3c2s1 | 35.5 µM [falling, single point] |  |
| Cc1ccn(C(=O)c2ccc(NC(=O)C3CC3)cc2)n1 | 2.24 µM [rising, partial curve, poor fit] |  |
| C[C@]12c3[nH]c4ccc(Cl)cc4c3CCN1C(=O)[C@@H](CC(=O)NCCN1CCOCC1)C[C@@H]2C(=O)N1CCOCC1 | 16.4 µM [rising, partial curve, poor fit] |  |
| COc1ccc(C)cc1NC(=O)c1cc2ccccc2o1 | 3.16 µM [rising, partial curve, poor fit] |  |
| O=C(c1cc(=O)[nH]c2ccccc12)N1CCN(c2cccc(C(F)(F)F)c2)CC1 | 3.98 µM [rising, single point] |  |
| COc1ccc(NC(=O)CSc2nnc(-c3ccccc3C)n2N)cc1 | 5.62 µM [rising, single point] |  |
| Cc1ccn2c(=O)nc(SCC(=O)NCc3ccccc3Cl)nc2c1 | 25.9 µM [falling, single point] |  |
| O=C(N[C@@H](Cc1ccccc1)C(=O)OCC(=O)N1CCOCC1)c1cccs1 | 20 µM [rising, single point] |  |
| Cc1cccc2cc(CN(Cc3ccco3)C(c3nnnn3CCc3ccccc3)C(C)C)c(=O)[nH]c12 (stereo unspecified) | 6.31 µM [falling, partial curve] |  |
| CCC(=O)Nc1nc2ccc(S(C)(=O)=O)cc2s1 | 23.1 µM [rising, single point] |  |
| Cn1cnnc1SCC(=O)NC1CCCN(Cc2ccc(Cl)cc2)C1 (stereo unspecified) | 14.1 µM [rising, single point] |  |
| Cc1cc(=O)n2nc(N3CCCC(C(=O)N4CCN(c5ccccc5)CC4)C3)sc2n1 (stereo unspecified) | 3.98 µM [rising, partial curve, poor fit] |  |
| CCc1nnc(NC(=O)CSc2nnc(-c3ccncc3)n2C)s1 | 29.1 µM [rising, single point] |  |
| CN1C(=O)c2cccc(NC(=O)Cc3ccccc3)c2C1=O | 9.2 µM [falling, partial curve] |  |

Looked up above.
For AC50 [1], `Cc1cc(=O)n2nc(N3CCCC(C(=O)N4CCN(c5ccccc5)CC4)C3)sc2n1` (stereo unspecified) reads 3.98 µM [rising, partial curve, poor fit]
For AC50 [1], `CCc1nnc(NC(=O)CSc2nnc(-c3ccncc3)n2C)s1` reads 29.1 µM [rising, single point]
For AC50 [1], `O=C(c1cc(=O)[nH]c2ccccc12)N1CCN(c2cccc(C(F)(F)F)c2)CC1` reads 3.98 µM [rising, single point]

Next records follow:

| SMILES | AC50 [1] | AC50 [2] |
| --- | --- | --- |
| CC(C)CNC(=S)NNC(=O)c1ccco1 | 29.1 µM [falling, single point] | 23.1 µM [rising, partial curve, poor fit] |
| CCC(=NC(CC)CO)C1=C(O)CC(C)(C)CC1=O (stereo unspecified) | 14.1 µM [rising, single point] |  |
| CCN(C(=S)NC(=O)CCc1ccccc1)c1ccccc1 | 9.2 µM [rising, partial curve, poor fit] |  |
| CC(=O)Nc1ccccc1NS(=O)(=O)c1ccc(Cl)cc1 | 32.6 µM [falling, single point] |  |
| COCCCNC(=O)CN(c1cc(Cl)ccc1OC)S(=O)(=O)c1ccc(C)c([N+](=O)[O-])c1 | 15.8 µM [falling, partial curve, poor fit] |  |
| CCOC(=O)c1ccc(COC(=O)CCc2nc3ccccc3[nH]c2=O)o1 | 2.31 µM [falling, single point] |  |
| COc1ccccc1Oc1ccc(Oc2ccccc2OC)cc1 | 11.2 µM [falling, single point] |  |
| CN(C)/C=C/C(=O)c1ccc(Br)cc1 | 35.5 µM [rising, single point] |  |
| CCCOc1ccc(C(=O)NC(=S)Nc2nc(C)c(C(=O)N(C)C)s2)cc1 | 25.9 µM [rising, partial curve, poor fit] |  |
| Cc1ccsc1C(=O)OCC(=O)Nc1cccc(S(=O)(=O)N2CCOCC2)c1 | 4.61 µM [falling, full curve, poor fit] |  |
| CC1CN(CC(=O)Nc2ccc(Br)cn2)CC(C)O1 (stereo unspecified) | 17.8 µM [rising, partial curve, poor fit] |  |
| Cc1cc(C)c2nc(-c3ccccn3)cc(C(=O)Nc3ccc(S(=O)(=O)Nc4cc(C)on4)cc3)c2c1 | 35.5 µM [falling, single point] |  |
| CC(=O)Nc1ccc(NC(=O)C(C)Sc2n[nH]c(-c3ccc(C)cc3)n2)cc1 (stereo unspecified) | 32.6 µM [rising, single point] |  |
| O=C(Nc1ccc(F)cc1F)c1ccc2c(=O)n3c(nc2c1)CCC3 | 14.6 µM [falling, partial curve] |  |
| CCOC(=O)C1CCCN(C(=O)c2cc3c(C)nc4ccccc4c3o2)C1 (stereo unspecified) | 29.1 µM [falling, single point] |  |
| O=C(COc1ncnc2scc(-c3ccc(F)cc3)c12)NCc1ccco1 | 0.00517 µM [rising, full curve, poor fit] |  |
| CCc1ccc(OCC(=O)NC(C)(C)C)cc1 | 18.4 µM [rising, partial curve, poor fit] |  |
| Cn1nc(CC(=O)NCc2cccc3ccccc23)c2ccccc2c1=O | 0.259 µM [falling, full curve, poor fit] |  |
| CCOc1ccc(NC(=O)CCCc2cc(-c3ccc(OCC)cc3)on2)cc1 | 3.55 µM [falling, single point] |  |
